## Primary screen of a compound library

Protein sequences, listed by entry. Tags and fused reporters are not part of them.
UniProt E9BF75, entry or part of it: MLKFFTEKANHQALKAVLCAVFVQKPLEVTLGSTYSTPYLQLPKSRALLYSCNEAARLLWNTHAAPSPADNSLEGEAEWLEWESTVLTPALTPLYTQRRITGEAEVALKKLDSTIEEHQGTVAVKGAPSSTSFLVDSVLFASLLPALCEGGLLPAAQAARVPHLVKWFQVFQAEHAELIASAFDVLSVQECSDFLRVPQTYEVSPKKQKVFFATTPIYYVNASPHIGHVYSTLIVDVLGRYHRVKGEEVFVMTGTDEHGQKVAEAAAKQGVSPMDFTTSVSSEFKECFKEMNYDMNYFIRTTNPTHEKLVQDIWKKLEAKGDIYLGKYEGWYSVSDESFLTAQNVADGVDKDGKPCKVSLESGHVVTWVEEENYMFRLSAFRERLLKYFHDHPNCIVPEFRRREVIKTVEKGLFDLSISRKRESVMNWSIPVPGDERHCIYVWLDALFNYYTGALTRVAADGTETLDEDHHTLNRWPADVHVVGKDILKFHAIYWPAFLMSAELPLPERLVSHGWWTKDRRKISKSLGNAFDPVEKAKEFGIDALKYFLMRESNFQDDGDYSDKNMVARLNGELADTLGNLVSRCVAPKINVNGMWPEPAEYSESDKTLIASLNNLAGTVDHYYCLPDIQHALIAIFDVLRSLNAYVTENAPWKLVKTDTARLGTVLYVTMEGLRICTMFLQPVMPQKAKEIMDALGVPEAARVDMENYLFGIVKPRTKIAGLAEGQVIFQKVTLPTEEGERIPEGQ

The values are deposited in ChEMBL (CHEMBL3988442, “University of Dundee, Small-Polar-MMV Screening Library” (2021)).

A: 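Methionyl-tRNA synthetase (putative), Leishmania donovani (UniProt E9BF75). Primary screen of methionyl-tRNA synthetase; the read-out is not stated. The test concentration is not given. The values are filed as inhibition. Size under these conditions: about 68,000 compounds, about 24 of them at 50% or above in at least one test.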
B: 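Assay on Mycobacterium tuberculosis, filed only as a heat shock assay from Cornell; the read-out is not stated. The concentration is filed as 10 mM, unlikely as a test dose, so the dose is not known. Direction is inferred from retests: higher values go with stronger inhibition. Of about 69,000 compounds tested this way, about 930 (1.4%) reached 50% or more in at least one test.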

Results are percentages, as filed.
The controls that fix the scale are not given in the record; negative values are as filed.
Compounds were drawn at random from those tested, without regard to their results.

O=S(=O)(c1ccccc1)N1CCC2(CCCN2Cc2ccccc2Cl)C1 (centres undefined) read A: 2.488%; B: -17.22%.
CCOCC(=O)N1CC(=O)Nc2cc(Br)ccc21 read A: 9.192%; B: 1.889%.
CNC(=O)C1CCCN(C(=O)c2cncs2)C1 (centres undefined) read A: 12.21%; B: 5.054%.
N#Cc1ccc(NCc2cccc(OCC3CCCO3)c2)nc1 (centres undefined) read A: 15.45%; B: 1.784%.
Cc1[nH]ncc1C(=O)N(CC(C)C)CC(O)c1ccc(F)cc1 (centres undefined) read A: 4.482%; B: -9.075%.
CCC[C@@H]1CN(Cc2nnc(-c3cccnc3)o2)C[C@H]1NC(C)=O read A: 12.78%; B: -10.11%.
COc1cccc2c1ccn2CC(=O)Nc1nc[nH]n1 read A: 17.62%; B: 3.639%.
[H][C@]12CCC[C@@]1(COCc1ccccn1)CN(C(=O)C1CCOCC1)C2 read B: 1.731%.
O=C(CCc1cccnc1)N1CCC2(CCN(CC3CCCC3)C2)C1 (centres undefined) read A: -1.25%.
[H][C@@]12CCN(Cc3nc(C)cs3)C[C@@]1([H])O[C@@H](C)C2 read B: -12.9%.
COc1ccc(C(=O)N2CCC(Nc3cccnn3)CC2)c(OC)c1 read A: 3.472%; B: 8.892%.
CC(C)n1ccnc1CN1CCCN(C(=O)c2cnc[nH]2)CC1 read A: 15.71%; B: 2.581%.
CC(O)CN1CCN(C(=O)c2ccn(-c3ccc(F)cc3)n2)CC1 (centres undefined) read A: 8.434%; B: -6.192%.
Cc1ccc(CN2CCC3(CC2)NC(=O)CC3c2ccccc2)s1.O=C(O)C(F)(F)F (centres undefined) read B: -1.808%.
[H][C@]12CCN(C(=O)C3CC=CC3)[C@@]1([H])CC[C@H](COCC1CCOCC1)O2 read B: -22.59%.
O=C(c1cc(C2CC2)on1)N1CC[C@]2(C[C@H](Oc3cccnc3)CO2)C1 read A: 5.579%; B: -2.977%.
COCCNC(=O)Cn1c(-c2cccc(Cl)c2)nc(C)c(CCO)c1=O read A: 12.74%; B: 68.55%.
C1CCC(c2nc3c(c(N4CC(N5CCOCC5)C4)n2)CCNCC3)C1 read A: 12.94%; B: -12.72%.
O=C1CN(CCCNC(=O)Nc2ccccn2)CCN1 read A: 11.08%; B: 15.5%.
CC(=O)NCc1ccc(C(=O)N2CCCC2c2c(C)nn(C)c2C)o1 (centres undefined) read A: 23.3%; B: 10.73%.
CC(=O)N1CCC2(CC1)[C@@H]1CN(Cc3cccnc3)C[C@@H]1C(=O)N2C read A: 7.222%.
COC(=O)c1c(Cl)c(C2CC2)nc2onc(C)c12 read A: 6.989%; B: -3.928%.
CCN1CCOC(CNCc2ccc(OCc3ccccn3)cc2)C1 (centres undefined) read A: 15.56%; B: 7.916%.
CCN1CCN(C)C2(CCN(Cc3ccc(C)o3)CC2)C1=O read A: 9.444%.
c1ccc(COC[C@@]23CCC[C@@H]2CN(Cc2ccccn2)C3)nc1 read A: 13.49%.
O=C(NCCCO)Nc1cccc(C[S+]([O-])c2ccccc2)c1 (centres undefined) read A: 19.93%; B: -16.03%.
CN1CCCC1c1ccc(N2CCOCC2)cn1 (centres undefined) read A: 13.52%; B: 11.58%.
COc1c(C2CCCN2C(=O)c2cscn2)c(C)nn1C (centres undefined) read A: 1.425%; B: -16%.
Cc1ccc(CN2CCCC3(CCCCN3S(C)(=O)=O)C2)s1 (centres undefined) read A: 6.723%.
CC(C)NC(=O)[C@H]1C[C@@H]2[C@@H](C1)OCCN2Cc1ccccn1 read A: 6.189%.
CN1CCNC(=O)C1CC(=O)NCCc1cnn(-c2ccccc2)c1 (centres undefined) read A: 5.994%; B: -25.62%.
Cc1ccccc1SCC(=O)Nn1cnnc1 read A: 15.33%; B: 10.04%.
CNS(=O)(=O)CC1CCCN1C(=O)c1cccc(Cl)c1 (centres undefined) read A: 4.878%; B: 12.04%.
Cc1cccc2cc(CN3CCC(N4CCOCC4)CC3)c(=O)[nH]c12 read A: 13.07%; B: 4.693%.

Some entries from above, unchanged:

Compound	A	B
CC(=O)NCc1ccc(C(=O)N2CCCC2c2c(C)nn(C)c2C)o1 (centres undefined)	23.3%	10.73%
Cc1cccc2cc(CN3CCC(N4CCOCC4)CC3)c(=O)[nH]c12	13.07%	4.693%